# Measured values: article PMC9770967, “Native holdup (nHU) to measure binding affinities from cell extracts” (Science Advances, 2022)
# B1: full-length SLC16A1: monocarboxylate transporter 1, endogenous full-length prey (protein, UniProt P53985 1-500, looked up)
# chain: MPPAVGGPVGYTPPDGGWGWAVVIGAFISIGFSYAFPKSITVFFKEIEGIFHATTSEVSWISSIMLAVMYGGGPISSILVNKYGSRIVMIVGGCLSGCGLIAASFCNTVQQLYVCIGVIGGLGLAFNLNPALTMIGKYFYKRRPLANGLAMAGSPVFLCTLAPLNQVFFGIFGWRGSFLILGGLLLNCCVAGALMRPIGPKPTKAGKDKSKASLEKAGKSGVKKDLHDANTDLIGRHPKQEKRSVFQTINQFLDLTLFTHRGFLLYLSGNVIMFFGLFAPLVFLSSYGKSQHYSSEKSAFLLSILAFVDMVARPSMGLVANTKPIRPRIQYFFAASVVANGVCHMLAPLSTTYVGFCVYAGFFGFAFGWLSSVLFETLMDLVGPQRFSSAVGLVTIVECCPVLLGPPLLGRLNDMYGDYKYTYWACGVVLIISGIYLFIGMGINYRLLAKEQKANEQKKESKEEETSIDVAGKPNEVTKAAESPDQKDTDGGPKEEESPV
# modifications: full-length
# notes: monocarboxylate transporter 1, endogenous full-length prey
# B2: full-length SLC1A5: neutral amino acid transporter B(0), endogenous full-length prey (protein, UniProt Q15758 1-541, looked up)
# chain: MVADPPRDSKGLAAAEPTANGGLALASIEDQGAAAGGYCGSRDQVRRCLRANLLVLLTVVAVVAGVALGLGVSGAGGALALGPERLSAFVFPGELLLRLLRMIILPLVVCSLIGGAASLDPGALGRLGAWALLFFLVTTLLASALGVGLALALQPGAASAAINASVGAAGSAENAPSKEVLDSFLDLARNIFPSNLVSAAFRSYSTTYEERNITGTRVKVPVGQEVEGMNILGLVVFAIVFGVALRKLGPEGELLIRFFNSFNEATMVLVSWIMWYAPVGIMFLVAGKIVEMEDVGLLFARLGKYILCCLLGHAIHGLLVLPLIYFLFTRKNPYRFLWGIVTPLATAFGTSSSSATLPLMMKCVEENNGVAKHISRFILPIGATVNMDGAALFQCVAAVFIAQLSQQSLDFVKIITILVTATASSVGAAGIPAGGVLTLAIILEAVNLPVDHISLILAVDWLVDRSCTVLNVEGDALGAGLLQNYVDRTESRSTEPELIQVKSELPLDPLPVPTEEGNPLLKHYRGPAGDATVASEKESVM
# modifications: full-length
# notes: neutral amino acid transporter B(0), endogenous full-length prey
# B3: CNBP: Cellular nucleic acid-binding protein (protein, UniProt P62633 2-177, looked up)
# CCHC-type zinc finger nucleic …: SSNECFKCGRSGHWARECPTGGGRGRGMRSRGRGGFTSDRGFQFVSSSLPDICYRCGESGHLAKDCDLQEDACYNCGRGGHIAKDCKEPKREREQCCYNCGKPGHLARDCDHADEQKCYSCGEFGHIQKDCTKVKCYRCGETGHVAINCSKTSEVNCYRCGESGHLARECTIEATA
# Key:
# [1] = test system: isolated PDZ domains (SNX27, TAX1BP3, SCRIB PDZ_1, SCRIB PDZ_2, DLG1 PDZ_1, DLG1 PDZ_2); test: nHU-MS with six isolated PDZ domain baits / summary of nHU-MS experiments; type: binding, human; details: Jurkat extract
# [2] = test system: HA-tagged SNX27; test: Colocalization (immunostaining) in U2OS cells expressing HA-tagged SNX27 or SNX27_ΔPDZ; type: cell-based; details: SNX27 vs SNX27_ΔPDZ, confocal, single-cell PCC, n > 20
# [3] = test system: SNX27_PDZ; test: nHU-WB at various incubation times, SNX27_PDZ bait, Jurkat lysates; type: binding; details: 15, 30, 120 and 240 min; 10 μM bait
# [4] = test system: full-length SNX27; test: nHU-WB titration, full-length SNX27 bait, total Jurkat extracts; type: binding
# Description: The empty His6-AviTag-MBP-TEV vector was used to produce biotinylated MBP for control experiments. Proteins were coexpressed with BirA biotin ligase (PET21a-BirA, Addgene, no. 20857) in Escherichia coli BL21(DE3) cells. At isopropyl-β-D-thiogalactopyranoside (IPTG) induction (1 mM IPTG at 18°C overnight), 50 μM biotin was added to the media. […] Lysates were frozen at -20°C before further purification steps. Lysates were sonicated and centrifuged for clarification. Expressed proteins were captured on in-house prepacked Ni-IDA (Protino Ni-IDA Resin, Macherey-Nagel, Duren, Germany) columns and were washed with at least 10 column volumes of cold wash buffer [50 mM tris (pH 7.5), 150 mM NaCl, and 2 mM β-mercaptoethanol] before elution with 250 mM imidazole. The Ni elution was collected directly on a preequilibrated amylose column (amylose high flow resin, New England Biolabs, Ipswich, MA). […] The concentration of proteins was determined by their ultraviolet absorption at 280 nm before aliquots were snap-frozen in liquid nitrogen and stored at -80°C. […] To saturate streptavidin resin with biotinylated proteins, 50 μl of streptavidin resin (Streptavidin Sepharose High Performance, Cytiva) was mixed with biotinylated MBP or MBP-PDZ at 40 to 50 μM concentration in 20× resin volume for 60 min. […] Last, resins were washed two times (10 resin volume, holdup buffer). […]
# [5] = test system: SNX27_PDZ; test: AP-MS control pull-down on leftover resin, SNX27_PDZ bait, total SH-SY5Y extracts; type: binding, human; details: threshold 1 σ
# Description: Leftover beads from nHU-MS experiments were washed three times immediately after the separation of the supernatant [10 resin volume in buffer containing 50 mM tris (pH 8.5), 150 mM NaCl, 1% Triton X-100, 10× cOmplete EDTA-free protease inhibitor cocktail, 2 mM EDTA, and 1 mM TCEP]. Then, the beads were washed two times [10 resin volume buffer containing 50 mM tris (pH 8.5), 150 mM NaCl, and 1 mM TCEP]. Last, captured protein was eluted from the resin in two steps, and the eluted fractions were pooled. For each elution, the beads were incubated for 30 min with three resin volume buffer containing 20 mM tris (pH 8.5), 100 mM NaCl, 500 μM TCEP, and 8 M urea. Between each step, the beads were separated by mild centrifugation, and the supernatant was removed by gentle pipetting.
# The nHU samples were precipitated with trichloroacetic acid (TCA) 20% overnight at 4°C and centrifuged at 14,000 rpm for 10 min at 4°C. The protein pellets were washed twice with 1 ml of cold acetone and air-dried. […]
# Samples were analyzed using an Ultimate 3000 nano-RSLC coupled in line via a nano-electrospray ionization source, with an LTQ-Orbitrap ELITE mass spectrometer (Thermo Fisher Scientific, San Jose, CA) or with the Orbitrap Exploris 480 mass spectrometer (Thermo Fisher Scientific, Bremen, Germany) equipped with a high field asymmetric ion mobility spectrometry (FAIMS) module. […]
Molecule,interaction with isolated PDZ domains [1],colocalization with SNX27 [2],effect of prolonged incubation time on BI [3],affinity ranking ([4]; full-length SNX27),binding mechanism ([4]; titration),BINDER_AP [5]
B1,detectable interaction with only SNX27_PDZ,statistically significantly stronger colocalization with SNX27 than with SNX27_ΔPDZ,only a small change; also recorded: did not observe significant change,stronger than with SLC1A5,–,–
B2,detectable interaction with only SNX27_PDZ,statistically significantly stronger colocalization with SNX27 than with SNX27_ΔPDZ,did not observe significant change,–,simple binding mechanism,–
B3,–,–,–,–,–,DOES NOT BIND

# “Also recorded” adds a separate entry of the source. Some compounds share one wording; it may come from a single statement.
